# Some of the results follow.
# Chains of the proteins cited; added tags and fusions are not shown.
# UniProt Q0JBA9, entry or part of it: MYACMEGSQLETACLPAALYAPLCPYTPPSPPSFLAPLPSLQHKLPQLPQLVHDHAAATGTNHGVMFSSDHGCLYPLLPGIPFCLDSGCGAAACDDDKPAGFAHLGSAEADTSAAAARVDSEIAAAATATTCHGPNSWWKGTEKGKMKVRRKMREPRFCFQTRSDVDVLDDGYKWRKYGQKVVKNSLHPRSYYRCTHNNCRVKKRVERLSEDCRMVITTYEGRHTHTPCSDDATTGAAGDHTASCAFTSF
# Target: OsWRKY34 (Oryza sativa, UniProt Q0JBA9 1-250)
# Assay: protein-binding microarray (RPBM); PBS, 2% BSA, 51.3 ng/ul salmon testes DNA, 50 uM zinc acetate, 200 nM TF, 25 C, 1 h; high values mean tight binding
# Conditions: protein: recombinant; tags: N-terminal polyhistidine and DsRed monomer fusion (pET32a); label: CyDye5-dUTP incorporated in the synthesized complementary strand; 3' TTTTT single-stranded linker to array surface; dsDNA, one strand shown
# Summary of the method: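 Binding signal here means per-feature fluorescence intensity in arbitrary units. The values were read on an Axon 4000B scanner after a custom Agilent array, double-stranded by primer extension with Cy5-dUTP, was incubated with 200 nM protein at 25 °C for 1 h in PBS with 2% BSA, salmon testes DNA and 50 µM zinc acetate, then washed. The proteins were transcription factors with an N-terminal polyhistidine tag and DsRed, expressed in E. coli BL21-CodonPlus and purified on Ni–NTA.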
row,Sequence,binding signal
1,AACACAAATCTTCCCCATTTTTTTTTTGTTCGCTTCCATCCGGAGTCACCTAGTGCAG,12900 fluorescence intensity (a.u.)
2,ACTAGTACACACTTGCATCATTCACAGGTTGAGCCATCCACGGAGTCACCTAGTGCAG,8920 fluorescence intensity (a.u.)
3,GTCTTTTGATGCGACGCGATGTGACTCGCCCGACCCAACTCGGAGTCACCTAGTGCAG,8940 fluorescence intensity (a.u.)
4,AGGTGAGGTGGAGGAGGAGGAGGAGGAGGAGATCGGGATGCGGAGTCACCTAGTGCAG,8790 fluorescence intensity (a.u.)
5,CTCGTCGATCACCTCATCACCGTTTGTTTTGCAGGTGGCGCGGAGTCACCTAGTGCAG,8220 fluorescence intensity (a.u.)
6,TTCTAGCTTTTCTGTCACATGTCACATCGTTCCAATTTCACGGAGTCACCTAGTGCAG,9480 fluorescence intensity (a.u.)
7,ACGTGGCGATAGGACCCGCGCCTTCACTCAGCTGCTCGCTCGGAGTCACCTAGTGCAG,8630 fluorescence intensity (a.u.)
8,GATTGTATAGCGCCCGTCTCTCCTCTCGTCTCCTTGTTCTCGGAGTCACCTAGTGCAG,8490 fluorescence intensity (a.u.)
9,GTCTATTAGAGCTCTAGTATTACTCACTGCAAATCTGTTACGGAGTCACCTAGTGCAG,8420 fluorescence intensity (a.u.)
10,CTCTCTCTCTCTCTCTCTCTCTCTCTCTCTCTCTCTCTCTCGGAGTCACCTAGTGCAG,9100 ± 325 fluorescence intensity (a.u.)
11,CCCGGTCGCCTTATTTTATTTTAAAAAGCCCATGATTTCTCGGAGTCACCTAGTGCAG,9430 fluorescence intensity (a.u.)
12,CCTCTTAACTCTTTCCCATTCCCAAATGCGCCACTGTCTCCGGAGTCACCTAGTGCAG,9190 fluorescence intensity (a.u.)
13,GCAGAGAGAGGGGAGGAGGGTGGGTGGCGGCGGCGGCTAGCGGAGTCACCTAGTGCAG,14400 fluorescence intensity (a.u.)
14,CACATGGCATACTCTCTTTTTATTTCTCTTTTCATTTTTTCGGAGTCACCTAGTGCAG,13900 fluorescence intensity (a.u.)
15,GTACATCACTTTCCCAGAATTCTACTTTGACCCTTCTTGGCGGAGTCACCTAGTGCAG,8180 fluorescence intensity (a.u.)
16,TCTCTCGGTCTTTACATTATTGGTGATTGTCTTATATTTTCGGAGTCACCTAGTGCAG,12300 fluorescence intensity (a.u.)
17,GTGATGTTCATGCGACAATGTGTTTCTTCCTGGACATATTCGGAGTCACCTAGTGCAG,8050 fluorescence intensity (a.u.)
18,CCCTCATCGCCGCCGTCCTCACCTCACCGCCGGCCAAGCCCGGAGTCACCTAGTGCAG,9330 fluorescence intensity (a.u.)
19,TACCTCCTCATTGCCTCGCCGTCCACCGACTTCGCCGCCACGGAGTCACCTAGTGCAG,8150 fluorescence intensity (a.u.)
20,GCTGTGTACCTGAATTGAGAGGACCCTTGTTTTTGTTAGACGGAGTCACCTAGTGCAG,9790 fluorescence intensity (a.u.)
21,TCTCGCCTCAACGCTTTCCAATTCCACCCCGACTTGCTGACGGAGTCACCTAGTGCAG,9330 fluorescence intensity (a.u.)

row,Sequence,binding signal
1,TCCAAGGACACTAACATTTGTTGTCTCACCTGTTCTTTTCCGGAGTCACCTAGTGCAG,8990 fluorescence intensity (a.u.)
2,GACCGAGAGCGCACAAGGCTTTCTTCTCTCCATCTTCGCTCGGAGTCACCTAGTGCAG,9200 fluorescence intensity (a.u.)
3,CAGTACGTCCTGTGGTCGGGGTCTAAGATCATATTTTTCGCGGAGTCACCTAGTGCAG,8490 fluorescence intensity (a.u.)
4,CGTGAGAGGAGAGGGGAGGGTTGTCAACCGTGAGAATTGCCGGAGTCACCTAGTGCAG,10000 fluorescence intensity (a.u.)
5,GGAGGCGGAGGCCGCCGCTTTGAAGGGCGGGAGGGGCGTTCGGAGTCACCTAGTGCAG,12400 fluorescence intensity (a.u.)
6,TGTGTTTGATCAATCAGCTCCAAACTTTCGTTATTTATTTCGGAGTCACCTAGTGCAG,9990 fluorescence intensity (a.u.)
7,CTCACCCGACGCTCCGTGCCCCGACGTTCCTCCACGATTACGGAGTCACCTAGTGCAG,9820 fluorescence intensity (a.u.)
8,CATTTTCCGCGATCCGTTGGAACCGACTTCTCATCAAATGCGGAGTCACCTAGTGCAG,11100 fluorescence intensity (a.u.)
9,CAGTCAACTCGCCGGTCTGAATAAGTTACTACATGCTGAACGGAGTCACCTAGTGCAG,8600 fluorescence intensity (a.u.)
10,TGTCATCGTCGTCACCTTGTCAGTTGGCGCTGGATCCGCACGGAGTCACCTAGTGCAG,10800 fluorescence intensity (a.u.)
11,TTGGTGAACATACACTCCTTTTCTCCTTTTTCTTTTTATTCGGAGTCACCTAGTGCAG,11000 fluorescence intensity (a.u.)
12,GCTATTTTTTATATTGTATTTCTATTTGGACTCTTCTTTTCGGAGTCACCTAGTGCAG,15500 fluorescence intensity (a.u.)
13,AATTTGTGTACTACTCGTGATCGATCCATTTGGCCATTAACGGAGTCACCTAGTGCAG,8590 fluorescence intensity (a.u.)
14,GGAGGAGTACGACGGGGTGGGAGCGGCGGTGGGTGGGATGCGGAGTCACCTAGTGCAG,11500 fluorescence intensity (a.u.)
15,TCCATCCGGCGAGCAGAGCAGGGGAGGGGAGGGGATCCTGCGGAGTCACCTAGTGCAG,14000 fluorescence intensity (a.u.)
16,TGGGGTATGTGTGCTTGGTTATGTGTGCATCTTAGTTATACGGAGTCACCTAGTGCAG,19300 fluorescence intensity (a.u.)
17,GAGCTTCCATCTTTTCTGACGACTACTGAATGTGCTATTCCGGAGTCACCTAGTGCAG,8670 fluorescence intensity (a.u.)
18,CCGCAACGCAACACGGCCACCGCAGCTTCCTCTCGCCTGACGGAGTCACCTAGTGCAG,9380 fluorescence intensity (a.u.)
19,AAGACGACAATGATTTTCCTTCTCACTCGTCATCCCTTGTCGGAGTCACCTAGTGCAG,8420 fluorescence intensity (a.u.)
20,CCGAACACAACCTAAGTTGTCTTCTTATGTGCTTGTTCTTCGGAGTCACCTAGTGCAG,8560 fluorescence intensity (a.u.)
21,CGTCGCGTCATGTCACCAAACAGCTCGCCTTCCTATTAACCGGAGTCACCTAGTGCAG,8830 fluorescence intensity (a.u.)

row,Sequence,binding signal
1,AACACACCATCCCCATATCCATGTTTTTGAAAATCTTTGGCGGAGTCACCTAGTGCAG,8430 fluorescence intensity (a.u.)
2,CCTCCGCCGCCGCCGCCGCCGCCGCCATTGGATTAGTTTTCGGAGTCACCTAGTGCAG,9450 fluorescence intensity (a.u.)
3,GCTCGAAACTGGCCGCTACTGCCACGCACCGCGCCGCGCGCGGAGTCACCTAGTGCAG,11400 fluorescence intensity (a.u.)
4,ATGTAATCCTTATCTTGGGTTGGTAGTATTTAGTTTGCCTCGGAGTCACCTAGTGCAG,10900 fluorescence intensity (a.u.)
5,CAGCGCGCCCTCGGGTGGTGGTGGTGGTATCGGAGGAGTCCGGAGTCACCTAGTGCAG,9750 fluorescence intensity (a.u.)
6,GATACATATTATGTCCCTTTACACTAGGAAGTGTTCAGCACGGAGTCACCTAGTGCAG,8490 fluorescence intensity (a.u.)
7,GATCTTCTCTCGCTCTGAAAAGTCCCATTTTGACTACTTGCGGAGTCACCTAGTGCAG,10900 fluorescence intensity (a.u.)
8,ATGGGGACGGGCTTTTTCTGCAGCAGATTCATGAGCTCGTCGGAGTCACCTAGTGCAG,8990 fluorescence intensity (a.u.)
9,GACGACGGCGCGTGGCGCGGGCGGGGTTTGAGGGGAGATGCGGAGTCACCTAGTGCAG,14600 fluorescence intensity (a.u.)
10,CAACTGCACTATCCATCAGCTCTCCAAGCTGCACCTGCGCCGGAGTCACCTAGTGCAG,8200 fluorescence intensity (a.u.)
11,CCCAACCAGTACCTTCGTTTCTTACACCGCATATCCCGTACGGAGTCACCTAGTGCAG,8240 fluorescence intensity (a.u.)
12,GGTCTTATCCCACGTAGCAAGTTGATTTGGTCATCATCCACGGAGTCACCTAGTGCAG,8690 fluorescence intensity (a.u.)
13,GAACCCCACACGCCAGAAATCATAACGTGCAGTCGGCCATCGGAGTCACCTAGTGCAG,8170 fluorescence intensity (a.u.)
14,GAAGTGTCCATATTGAGTCATTTGTCCATTTGCCCAGGCACGGAGTCACCTAGTGCAG,8300 fluorescence intensity (a.u.)
15,ACGCGGTCTCCAATACTTTACTTTGACCATTAATTAATACCGGAGTCACCTAGTGCAG,11100 fluorescence intensity (a.u.)
16,GATGTCATATATCTGGTTTTGCTTTTGGGACGATTTTGTACGGAGTCACCTAGTGCAG,9180 fluorescence intensity (a.u.)
17,TCTCGTTTAGTTTGAGTTCGGGCTGGGCGTCCCTTCTTCTCGGAGTCACCTAGTGCAG,12100 fluorescence intensity (a.u.)
18,CCCCAACTCCGCCGCACGCATCCCCGCACCCGCCACCATGCGGAGTCACCTAGTGCAG,10200 fluorescence intensity (a.u.)
19,TCTCGCATTCGTCGTTTGACTAGCTGTTCGGCCGCCGTATCGGAGTCACCTAGTGCAG,9000 fluorescence intensity (a.u.)
20,ACACACTTGTCGTAACGTACTCTGCTTTGTTAGCTCTCGGCGGAGTCACCTAGTGCAG,11000 fluorescence intensity (a.u.)
21,AGGTGTGTTTGGATAATGGAAAAATGGGGTGGGATTAGAACGGAGTCACCTAGTGCAG,11900 fluorescence intensity (a.u.)

row,Sequence,binding signal
1,TTTTTGCTCGTAGTATTTGACCGCTCGTCTTATTCAAAAACGGAGTCACCTAGTGCAG,9640 fluorescence intensity (a.u.)
2,TGGTTGGCTTGTGGGGTCCACGTGGGCCCTACACTGACTCCGGAGTCACCTAGTGCAG,8490 fluorescence intensity (a.u.)
3,CGAGGTGAGGCGGAGGGGAGGCAGAGGGGTAGAGGAGGGTCGGAGTCACCTAGTGCAG,8110 fluorescence intensity (a.u.)
4,CTCTCTCTCTCTCTCCGCGGCGCGGTCAAAACCCTAGCGCCGGAGTCACCTAGTGCAG,8260 fluorescence intensity (a.u.)
5,TCTCTGTCTCCCTCCCTCCTCCTGCCGCTCACATCAAAATCGGAGTCACCTAGTGCAG,9870 fluorescence intensity (a.u.)
6,TTAGTTATGACACTCTTGATAATTGCTACACTGGAATATTCGGAGTCACCTAGTGCAG,8260 fluorescence intensity (a.u.)
7,CCACTCGTTTCACCTCACCTCACCACCGCGCACGACCAGACGGAGTCACCTAGTGCAG,9280 fluorescence intensity (a.u.)
8,GGTAGGTGTATCTGACAGTCTCGAATGTGCCACATCTCTTCGGAGTCACCTAGTGCAG,9830 fluorescence intensity (a.u.)
9,TATCTCCTTTTGCCTTTTATTTTATTTGCTCATTGCATATCGGAGTCACCTAGTGCAG,12100 fluorescence intensity (a.u.)
10,ACTCCGGGCCGCCTCCCGTCTTCTCTTCTCGAGCGGCTCCCGGAGTCACCTAGTGCAG,11800 fluorescence intensity (a.u.)
11,CGTCGAGTATCTGTATCTCTAAGCATTTCTTGTTGACTTTCGGAGTCACCTAGTGCAG,10600 fluorescence intensity (a.u.)
12,CCGCCAACCCACGCTCTATCCACTCACACACACTCTCCTCCGGAGTCACCTAGTGCAG,8920 fluorescence intensity (a.u.)
13,ATGTGCCATTGATTTTTGTCTCTTTTTTTAGAAGTACAAACGGAGTCACCTAGTGCAG,8240 fluorescence intensity (a.u.)
14,ATAGCCAGAAGCCTGTAGCTCTCCATGGGCCCGTACTCGTCGGAGTCACCTAGTGCAG,9630 fluorescence intensity (a.u.)
15,GCACCTGTCAGGCTGTCACCACCCGACCATTCCCGAACTCCGGAGTCACCTAGTGCAG,9490 fluorescence intensity (a.u.)
16,GAAACCCTCTTCGTTTTGTTTTACCTCCGCCCCTGATCATCGGAGTCACCTAGTGCAG,8580 fluorescence intensity (a.u.)
17,ACGACCTCGCACGCTGCTCTCGCAAGCTCTCTCGGCCATGCGGAGTCACCTAGTGCAG,8030 fluorescence intensity (a.u.)
18,GTTCACTGTACCACCCTTATCAGTATCTGCATTCTGCAACCGGAGTCACCTAGTGCAG,12900 fluorescence intensity (a.u.)
19,TGGGGCCCACACTAGCGGGCAATTGGTTCTCGTAGTTTCTCGGAGTCACCTAGTGCAG,8220 fluorescence intensity (a.u.)
20,CCGCCATCGCCGTTGTTTTTGCCACTGCCGCCCGACGCCGCGGAGTCACCTAGTGCAG,11400 fluorescence intensity (a.u.)
21,TTTTTCTTCTTCTCTACGGCGAGCGCCTCCGCTTGTTTGTCGGAGTCACCTAGTGCAG,9990 fluorescence intensity (a.u.)

# Quoted from the listing for reference:
row,Sequence,binding signal
3,CGAGGTGAGGCGGAGGGGAGGCAGAGGGGTAGAGGAGGGTCGGAGTCACCTAGTGCAG,8110 fluorescence intensity (a.u.)
4,CTCTCTCTCTCTCTCCGCGGCGCGGTCAAAACCCTAGCGCCGGAGTCACCTAGTGCAG,8260 fluorescence intensity (a.u.)
5,TCTCTGTCTCCCTCCCTCCTCCTGCCGCTCACATCAAAATCGGAGTCACCTAGTGCAG,9870 fluorescence intensity (a.u.)
6,TTAGTTATGACACTCTTGATAATTGCTACACTGGAATATTCGGAGTCACCTAGTGCAG,8260 fluorescence intensity (a.u.)
7,CCACTCGTTTCACCTCACCTCACCACCGCGCACGACCAGACGGAGTCACCTAGTGCAG,9280 fluorescence intensity (a.u.)
8,GGTAGGTGTATCTGACAGTCTCGAATGTGCCACATCTCTTCGGAGTCACCTAGTGCAG,9830 fluorescence intensity (a.u.)
9,TATCTCCTTTTGCCTTTTATTTTATTTGCTCATTGCATATCGGAGTCACCTAGTGCAG,12100 fluorescence intensity (a.u.)
10,ACTCCGGGCCGCCTCCCGTCTTCTCTTCTCGAGCGGCTCCCGGAGTCACCTAGTGCAG,11800 fluorescence intensity (a.u.)
11,CGTCGAGTATCTGTATCTCTAAGCATTTCTTGTTGACTTTCGGAGTCACCTAGTGCAG,10600 fluorescence intensity (a.u.)
12,CCGCCAACCCACGCTCTATCCACTCACACACACTCTCCTCCGGAGTCACCTAGTGCAG,8920 fluorescence intensity (a.u.)
13,ATGTGCCATTGATTTTTGTCTCTTTTTTTAGAAGTACAAACGGAGTCACCTAGTGCAG,8240 fluorescence intensity (a.u.)

# From article PMC7819943, “Rice protein-binding microarrays: a tool to detect cis-acting elements near promoter regions in rice”
